From PubChem BioAssay (NCATS)
The shares of active, inactive and inconclusive entries below differ from those in the screen. Where the call is inconclusive, the potency comes from a doubtful curve fit. Calls of active or inactive are those of the source. Calls come from the whole dose curve; as a rule, active = well fitted cell-killing curve with a large enough effect; inconclusive = small, poorly fitted or top-dose-only effect, or effect the other way; inactive = no such curve, though single readings can be large or run the other way.

Legend:
[1] = Quantitative High-Throughput drug screen in 47 multiple myeloma cell lines against the NCATS MIPE library collection: FR4_PLB cell viability assay (AID 1918924; note: nearly all actives have a fitted effect of over 35% in size)
Procedure, shortened: (§1)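 Primary qHTS used for cherry-picking: cells at 500/well, library compounds for 48 h (37C, 5% CO2), luminescent ATP assay.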

[2] = Quantitative High-Throughput drug screen in 47 multiple myeloma cell lines against the NCATS MIPE library collection: Delta47_JCRB cell viability assay (AID 1918925; note: nearly all actives have a fitted effect of over 45% in size;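 for viability (% of DMSO): 0% = media-only wells and 100% = DMSO-only wells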); conditions: Delta47 myeloma viability, CellTiter-Glo ATP, 48 h; viability (% of DMSO): at 45.8 µM (top of the series)
Procedure, shortened: (§2)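 Approved and investigational drugs from MIPE 4.0 were added by pin tool to 500 cells per well. After 48 hours at 37C, ATP-based CellTiter-Glo luminescence indicated remaining viability.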

[3] = Quantitative High-Throughput drug screen in 47 multiple myeloma cell lines against the NCATS MIPE library collection: AMO1_DSMZ cell viability assay (AID 1918927; note: nearly all actives have a fitted effect of over 30% in size;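 for viability, % of DMSO: 100% = DMSO only wells and 0% = cell-free media only wells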); conditions: AMO1 myeloma cells viability, CellTiter-Glo ATP luminescence, 48 h; viability, % of DMSO: at 45.8 µM (top of the series)
Procedure, shortened: as §2

[4] = Quantitative High-Throughput drug screen in 47 multiple myeloma cell lines against the NCATS MIPE library collection: ARP1_JJKsccF8 cell viability assay (AID 1918928; note: nearly all actives have a fitted effect of over 40% in size;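 for viability: 100% = DMSO only wells and 0% = medium only wells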); conditions: ARP1 myeloma cells viability, CellTiter-Glo ATP, 48 h; viability: at 45.8 µM (top of the series)
Procedure, shortened: (§3)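 Here, 48 h treatment with MIPE 4.0 agents at 37 °C preceded an ATP luminescence read. Plating density was 500 cells per well.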

[5] = Quantitative High-Throughput drug screen in 47 multiple myeloma cell lines against the NCATS MIPE library collection: ARD_JJKsccE7 cell viability assay (AID 1918929;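 for viability: 100% = DMSO-only wells and 0% = media-only wells without cells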); conditions: ARD myeloma cell line viability, CellTiter-Glo, 48 h; viability: at 45.8 µM (top of the series)
Procedure, shortened: as §2

[6] = Quantitative High-Throughput drug screen in 47 multiple myeloma cell lines against the NCATS MIPE library collection: Karpas620_DSMZ cell viability assay (AID 1918959); note: nearly all actives have a fitted effect of over 30% in size;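 for viability (% of DMSO): 100% = DMSO-only wells and 0% = cell-free media-only wells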
Procedure, shortened: as §1

[7] = Quantitative High-Throughput drug screen in 47 multiple myeloma cell lines against the NCATS MIPE library collection: KMM1_JCRB cell viability assay (AID 1918960); conditions: KMM1 myeloma viability, CellTiter-Glo ATP luminescence, 48 h; viability (% of DMSO): at 45.8 µM (top of the series); note: nearly all actives have a fitted effect of over 30% in size;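 for viability (% of DMSO): 100% = DMSO-treated cells and 0% = medium-only wells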
Procedure, shortened: as §3

[8] = Quantitative High-Throughput drug screen in 47 multiple myeloma cell lines against the NCATS MIPE library collection: EJM_DSMZ cell viability assay (AID 1918926; note: nearly all actives have a fitted effect of over 30% in size)
Procedure, shortened: as §2
Potency is the fitted concentration of half-maximal effect.

| SMILES | Potency [1] | Potency [2] | Potency [3] | Potency [4] | Potency [5] | Potency [6] | Potency [7] | Potency [8] | viability (% of DMSO) [7] |
| --- | --- | --- | --- | --- | --- | --- | --- | --- | --- |
| COc1ccc2c(c1OC)CN1CCc3cc4c(cc3C1C2)OCO4 (centres undefined) | inconclusive: 23.5 µM [cytotoxic, single point] | inconclusive: 18.7 µM [cytotoxic, partial curve, poor fit] | inconclusive: 14.8 µM [cytotoxic, partial curve] | inconclusive: 33.2 µM [cytotoxic, single point] | inconclusive: 3.72 µM [cytotoxic, partial curve, poor fit] | inconclusive: 16.6 µM [cytotoxic, partial curve] | inconclusive: 16.6 µM [cytotoxic, partial curve] |  |  |
| C#CC1(O)CCC2C3CCC4=CC(=O)CCC4(C)C3CCC21C (centres undefined) | inconclusive: 0.001 µM [cytotoxic] | inactive | inactive |  |  |  | inactive | inactive |  |
| C#C[C@]1(O)C=C[C@@H]2[C@@H]3CCC4=CC(=O)CC[C@@H]4[C@H]3CC[C@@]21CC | inactive | inconclusive: 4.18 µM [cytotoxic, full curve, poor fit] | inconclusive: 33.2 µM [cytotoxic, single point] |  | inconclusive: 20.9 µM [cytotoxic, single point] | inactive | inconclusive: 20.9 µM [cytotoxic, partial curve] |  |  |
| CC(O)(CS(=O)(=O)c1ccc(F)cc1)C(=O)Nc1ccc(C#N)c(C(F)(F)F)c1 (centres undefined) | inconclusive: 33.2 µM [cytotoxic, single point] |  | active: 0.662 µM | inconclusive: 33.2 µM [cytotoxic, single point] | active: 1.66 µM |  | active: 2.64 µM |  |  |
| NC1CC1c1ccccc1 (centres undefined) | inactive |  |  | inactive |  |  |  | inactive |  |
| O=C1CCC[C@@H]2[C@H]3CCCN4CCC[C@@H](CN12)[C@@H]34 | inconclusive: 0.0093 µM [rising, full curve, poor fit] |  | inconclusive: 0.0332 µM [rising, full curve, poor fit] | inconclusive: 0.0026 µM [rising, full curve, poor fit] | inconclusive: 1.18 µM [cytotoxic, full curve, poor fit] |  |  |  | inconclusive: 11.6% [cytotoxic] |
| O=C(O)c1nn(Cc2ccc(Cl)cc2Cl)c2ccccc12 | inconclusive: 0.001 µM [cytotoxic] | inconclusive: 1.32 µM [cytotoxic, full curve, poor fit] | inconclusive: 0.0019 µM [cytotoxic, full curve, poor fit] |  | inactive | inconclusive: 0.0042 µM [cytotoxic, full curve, poor fit] | inconclusive: 0.001 µM |  |  |
| O=C(Oc1ccc([N+](=O)[O-])cc1)N1CCC(C(O)(c2ccc3c(c2)OCO3)c2ccc3c(c2)OCO3)CC1 | inactive | inconclusive: 10.5 µM [cytotoxic, full curve] | inconclusive: 23.5 µM [cytotoxic, single point] |  | inconclusive: 5.26 µM [cytotoxic, partial curve, poor fit] | inconclusive: 33.2 µM [cytotoxic, single point] | inconclusive: 20.9 µM [cytotoxic, single point] |  |  |
| O=C(N[C@@H](COc1ccc2[nH]c(=O)[nH]c2c1)c1ccccc1)c1cccn(Cc2ccc(F)c(F)c2)c1=O | inconclusive: 33.2 µM [cytotoxic, single point] |  |  | inconclusive: 20.9 µM [cytotoxic, partial curve] | active: 18.7 µM | inconclusive: 33.2 µM [cytotoxic, single point] | active: 18.7 µM | inconclusive: 20.9 µM [cytotoxic, partial curve, poor fit] |  |
| O=c1cccc2n1CC1CNC[C@H]2C1 | inactive | inconclusive: 14.8 µM [cytotoxic, partial curve] |  | inconclusive: 0.001 µM [cytotoxic] | inconclusive: 13.2 µM [cytotoxic, partial curve] |  |  |  |  |
| Cc1ccccc1-n1c(Cn2cnc3c(N)ncnc32)nc2cccc(C)c2c1=O | active: 6.62 µM |  |  |  | inconclusive: 0.372 µM [cytotoxic, full curve] |  |  | active: 4.18 µM |  |
| CC(=CCCC1=CCC(C2=CC(=O)OC2O)OC1O)CCC1=C(C)CCCC1(C)C (centres undefined) | inactive |  | inconclusive: 5.26 µM [cytotoxic, partial curve, poor fit] |  |  |  | inconclusive: 9.35 µM [cytotoxic, single point] |  |  |
